In the supplement of paper PMC3334620:
The full ranking holds about 33,000 sequences; the median of “E-score (-0.5 to 0.5)” is about -0.015, and the highest 2% start at about 0.3. Some of the results follow.

biological target: T1, Abf1 (UniProt P14164); experiment: PBM E-score (8-mer binding enrichment) (E-score (-0.5 to 0.5)); higher = stronger / more preferred TF binding; settings: protein concentration: 200 nM; construct: GST-full length
T1 sequence: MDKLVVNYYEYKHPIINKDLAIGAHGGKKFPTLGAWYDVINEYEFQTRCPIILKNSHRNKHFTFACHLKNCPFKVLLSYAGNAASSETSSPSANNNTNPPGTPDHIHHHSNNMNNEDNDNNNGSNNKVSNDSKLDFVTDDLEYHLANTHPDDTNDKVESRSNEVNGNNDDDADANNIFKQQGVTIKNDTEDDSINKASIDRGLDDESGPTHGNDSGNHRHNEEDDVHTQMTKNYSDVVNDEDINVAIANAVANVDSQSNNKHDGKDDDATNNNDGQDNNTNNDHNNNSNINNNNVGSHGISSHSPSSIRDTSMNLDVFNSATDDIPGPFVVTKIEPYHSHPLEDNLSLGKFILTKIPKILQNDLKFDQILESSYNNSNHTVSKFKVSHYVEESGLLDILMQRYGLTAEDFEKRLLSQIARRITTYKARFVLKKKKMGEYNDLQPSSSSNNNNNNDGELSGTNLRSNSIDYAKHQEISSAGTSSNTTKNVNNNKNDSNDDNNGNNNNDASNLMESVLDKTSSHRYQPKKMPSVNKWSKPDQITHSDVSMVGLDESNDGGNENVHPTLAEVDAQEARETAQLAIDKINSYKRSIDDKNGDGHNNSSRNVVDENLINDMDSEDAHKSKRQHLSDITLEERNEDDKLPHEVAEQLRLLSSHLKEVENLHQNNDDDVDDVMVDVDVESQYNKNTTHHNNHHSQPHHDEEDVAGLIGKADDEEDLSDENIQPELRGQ
Procedure: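 Universal 'all 10-mer' protein binding microarrays (Agilent AMADID 015681) probed with GST-tagged S. cerevisiae TFs (full-length or DBD) made by in vitro transcription/translation (PURExpress), about 100-200 nM. Bound TF was detected with fluorescent anti-GST. Each ungapped 8-mer (which stands for itself and its reverse complement) is scored by the PBM enrichment score (E-score), a modified Wilcoxon-Mann-Whitney statistic from -0.5 to +0.5, computed with the Universal PBM Analysis Suite. Scale: above 0.35 generally sequence-specific binding.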

Point of comparison: CAGCCACA, “PBM E-score” value -0.154. Against it:
- CGCTAGGA — higher, -0.142
- CGCATACG — higher, 0.0412
- CCTTAAGG — higher, -0.0777
- GGGTTGAA — higher, -0.0879
- ATCAGTCC — higher, -0.133
- ACCTGCGT — higher, -0.045
- GTGGCCAA — higher, -0.0965
- GGCCTTTA — lower, -0.171
- GATGGGGA — lower, -0.241
- GAAGTAGC — higher, -0.0902
- AACCACAT — higher, 0.182
- AAGGGACG — higher, -0.136
- TAAAGGCA — higher, 0.11
- ACAAAAGT — higher, 0.0193
- CAAAGCCG — higher, 0.0762
- GGGAATCA — higher, -0.035
- ACAAAATC — higher, 0.129
- ACTTGATG — higher, 0.0621
- CGAGTAGA — higher, -0.0934
- CGGAGAAA — higher, -0.0647
- CAGCAGAC — higher, -0.0427
- CCAGGTAC — higher, 6e-05
- AACCTGCC — higher, -0.14
- GCACATAA — higher, 0.0832
- CAGCGCCG — lower, -0.238
- CCCCTTCG — lower, -0.222
- AACTAATA — higher, 0.306
- CCAGGTAA — higher, -0.0599
- ACGTATCA — higher, 0.33
- CCGTGTCC — higher, 0.00491
- GTTGGCAA — higher, 0.0422
- AAGGTTCG — higher, 0.0153
- AGATCAAG — higher, 0.112
- TAGAGTAA — higher, 0.0455
- CAAAGTCC — higher, -0.141
- GCCTAACC — lower, -0.163
- TATGTGAA — higher, 0.118
- CTTATGTC — higher, 0.00318
- TAGGTTAA — higher, 0.027
- CAACCGCC — higher, -0.00665
- CGGTTCCC — lower, -0.161
- CTCCAGAC — lower, -0.186
- GGGACAAA — higher, 0.0674
- TCCGTTAA — higher, 0.0849
- CCGAGACA — higher, -0.0957
- CCGTATAC — higher, 0.272
- ATCCGGTG — higher, -0.0713
- CATGGCCC — lower, -0.187
- AAGCGCTT — higher, 0.193
- ACTATTCA — higher, 0.187
- CTATAGCC — lower, -0.181
- CGGTGCAC — higher, -0.0411
- CACGATCC — higher, 0.0482
- CCGAAGGA — lower, -0.29
- CGGCACTC — higher, -0.0551
- ATTCAGAA — higher, 0.142
- AGAGCTAC — higher, -0.0107
- CTAATTAG — higher, 0.162
- AGGGGCCC — lower, -0.185
- GCACAAGC — lower, -0.284
- ATGTAAAT — higher, 0.196
- AAATGATA — higher, 0.409
- TGATAGCA — higher, 0.243
- CTGTCCGC — higher, -0.129
- AGCGGATG — higher, -0.055
- ATACACGG — higher, 0.202
- GACAACCC — higher, 0.0319
- GACTTTCA — higher, 0.0556
- ACGATCGT — higher, 0.319
- AGAACCAC — lower, -0.18
- GTGTGTAA — higher, -0.0186
- AAGGCCAT — higher, 0.0255
- CTGCGCAC — higher, 0.171
- CCTCTTGA — higher, -0.0854
- GGCCTGTA — lower, -0.323
- GTGGGGAA — higher, -0.0299
- GCGAAACA — higher, -0.0459
- ACCATTGC — higher, -0.119
- CGAGTTAC — higher, 0.12
- GCCGGTCA — higher, -0.0382
- GGTGTTAA — higher, 0.0588
- ATCATGCA — higher, 0.0322
- AGAGGTTC — higher, -0.148
- CTCAATTC — higher, -0.134
- CTCACGAG — higher, 0.0775
- CCGAATAC — higher, 0.0415
- AAATAATG — higher, 0.207
- GGACGAAC — higher, 0.323
- ATATGGTA — higher, 0.168
- AACGTAGT — higher, 0.0741
- CACATTGA — higher, 0.0367
- GTAAGATA — higher, 0.178
- ACCCTGGC — higher, -0.103
- CGTTGTAA — higher, 0.167
- GCTAAGCA — higher, -0.0777
- ACTACATC — higher, 0.07
- CTCGTCAC — higher, 0.336
- TATCAAAA — higher, 0.232
- GATCACAA — higher, 0.26
- ATATACAA — higher, 0.0677
- GCCCGAGA — lower, -0.194
- CCAAGCAC — higher, -0.102
- GAAACGGC — higher, 0.00884
- CAACTTTA — higher, 0.116
- CAGCTTGG — higher, -0.144
- ACGGGTAA — higher, 0.0732
- GCGAAACC — higher, -0.0603
- CACCGCAC — higher, -0.14
- GCATGGCA — higher, -0.0479
- CCGAGAGC — lower, -0.176
- AAAGGAAC — higher, -0.0426
- TCTATAGA — lower, -0.184
- GCGCCCAA — higher, 0.0467
- CTAACCTC — higher, -0.0908
- AGGCCCAT — lower, -0.282
- GAGGCCCC — lower, -0.298
- AAAGGTTA — higher, -0.0444
- ACCGCCGC — higher, -0.0966
- ATTAGCAA — higher, 0.206
- GGTGATAC — higher, 0.186
- AAAAGCAG — higher, -0.151
- ACCGCGTC — higher, 0.099
- TATCGTAA — higher, 0.243
- CACAGCAG — higher, -0.113
- ACGGGAGC — higher, 0.138
- ACACGTGC — higher, 0.118
- ATAAGGAC — higher, 0.0459
- CAACGGTA — higher, 0.0381
- AATACGTA — higher, 0.135
- ATTATCAC — higher, 0.434
- TATCTTAA — higher, 0.126
- TAGGTCCA — higher, -0.0215
- CCAGATGA — higher, 0.0858
- CCCAAGCC — higher, -0.131
- AATCGATT — higher, 0.146
- CTGGCACC — higher, -0.0999
- CTGCGTAC — higher, 0.0269
- CATGAACG — higher, -0.125
- AGTCTCAC — lower, -0.167
- GGGGGCGA — lower, -0.365
- ACTGTGAT — higher, 0.114
- CTCTATAA — higher, -0.129
- ATAAGCAC — higher, -0.0466
- TACTGACA — higher, -0.0216
- CATATAGG — higher, -0.0562
- ACCGGCGA — higher, -0.128
- CTGGGTGC — lower, -0.289
- ACATCATC — higher, 0.328
- GGCCAATA — higher, 0.0241
- AAACTATC — higher, 0.0484
- AGCTTACA — higher, 0.0321
- CTCGTAGA — higher, 0.106
- CGATTCCG — higher, -0.0782
- GAAGTGGA — higher, 0.00297
- AAACCAGC — higher, 0.0956
- GGGAGGAA — lower, -0.22
- TAGCGGCA — higher, 0.00307
- CGGTCTTC — higher, 0.0029
- GTGATCGA — higher, 0.227
- TCCGGCGA — higher, 0.069
- GACCTCCA — higher, -0.121
- CCGGACAA — higher, -0.0436
- AACGCGGC — higher, -0.116
- GGAGTATA — higher, 0.0773
- ATTGGCCA — lower, -0.232
- TGGTGCAA — higher, -0.133
- GTCCCTTA — higher, 0.176
- CCCATGAG — higher, -0.117
- ATGAATGA — higher, 0.175
- GGAAAGCC — higher, -0.0669
- GAAGATGA — higher, 0.214
